# Reference: article PMC8424950
# These are yes or no findings as the source states them, for the method shown. Binding seen in cells or lysates may run through a third protein. Binding calls can cover weak binding; strength is not graded here.
# Columns and labels:
# [1] = target: T1, KDELR1-mCherry (human) (UniProt P24390); assay: co-IP; HeLa co-transfected with KDELR1-mCherry and hGH-GFP-myc or hGH-GFP-myc-KDEL, treated with DSP crosslinker (2 mM) in PBS at 37 °C for 30 min before lysis; anti-RFP agarose beads; western blot
# T1 sequence: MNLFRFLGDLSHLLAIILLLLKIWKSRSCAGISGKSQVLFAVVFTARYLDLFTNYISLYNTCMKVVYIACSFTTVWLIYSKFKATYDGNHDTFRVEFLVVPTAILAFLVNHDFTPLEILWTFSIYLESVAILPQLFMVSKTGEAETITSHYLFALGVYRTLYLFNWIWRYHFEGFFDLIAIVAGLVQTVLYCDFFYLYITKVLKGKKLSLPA
# [2] = target: T1, KDELR1-mCherry (human); assay: co-IP; anti-RFP agarose beads, 4 h at 4°C, on lysates (20 mM HEPES pH 7.4, 100 mM NaCl, 2 mM DDM + 0.02% CHS) of HeLa cells with KDELR1-mCherry or endogenously tagged KDELR1-3xFlag-mCherry; western blot; also done with ACBD3-depleted, ACBD3-KO and ACBD3 over-expressing cells
Substance,binding [1],binding [2]
p24 (endogenous) (human (endogenous in HeLa)),binds,binds
γ-COP (endogenous) (human (endogenous in HeLa)),binds,binds
